## Drug screen on melanoma cell lines: cell count

From a melanoma drug combination screen (doi:10.1371/journal.pone.0140310); values rounded.

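Human melanoma cells were exposed to a pair of drugs for 72 h in 1,536-well plates and read by automated microscopy after fixing and staining. Each value is the count of nuclei relative to DMSO-treated wells, in %, so that 100 equals the control. Every drug was used at one fixed concentration, the lower of two screened (a fifth of the higher). These are primary screening values without error estimates.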 This is part of the screen, not chosen by result.

Every entry is a combination with vatalanib at 2 µM: Clc1ccc(Nc2nnc(Cc3ccncc3)c3ccccc23)cc1

With O=C1NC(=O)/C(=C/c2ccc(-c3ccc(F)cc3O)o2)S1 at 1 µM the screen read A101D: 98.6; C32: 86.7; 501mel: 88.2; A2058: 104. For COc1cc2ncnc(Nc3ccc(Oc4ccccc4)cc3)c2cc1OC at 2 µM the values were A101D: 97.9; C32: 109; 501mel: 84.9; A2058: 107. Oc1nc(-c2ccc(C(F)(F)F)cc2)nc2c1CSCC2 at 2 µM gave A101D: 101; C32: 92.6; 501mel: 93.0; A2058: 83.6. With CC(C)CCN1c2nc(Nc3cc(F)c(O)c(F)c3)ncc2N(C)C(=O)C1C (stereo not drawn) at 0.2 µM the screen read A101D: 84.9; C32: 93.8; 501mel: 97.0; A2058: 107. With Oc1cc(-c2nc(-c3ccccc3)[nH]c2-c2ccncc2)ccc1Cl at 0.2 µM the screen read A101D: 96.4; C32: 85.4; 501mel: 70.4; A2058: 96.5.

For N#Cc1c(O)c2c(-c3ccc(-c4ccccc4O)cc3)csc2[nH]c1=O at 2 µM the values were A101D: 105; C32: 97.9; 501mel: 103; A2058: 87.6. For COc1ccc(-c2ccc3c(N4CCOCC4)nc(N4C[C@@H](C)O[C@@H](C)C4)nc3n2)cc1CO at 0.02 µM the values were A101D: 90.8; C32: 106; 501mel: 121; A2058: 96.6. COC(=O)c1sccc1S(=O)(=O)Nc1ccc(Nc2ccccc2)cc1OC at 1 µM gave A101D: 96.3; C32: 105; 501mel: 112; A2058: 105. With O=C(O)C(=O)Nc1sc2c(c1C(=O)O)CCNC2 at 1.67 µM the screen read A101D: 103; C32: 111; 501mel: 79.1; A2058: 92.3. Results for COc1cc(N2CCC(N3CCN(C)CC3)CC2)ccc1Nc1ncc(Cl)c(Nc2ccccc2S(=O)(=O)C(C)C)n1 at 0.08 µM are A101D: 94.3; C32: 111; 501mel: 82.1; A2058: 97.0.

Results for COc1ccc2c(c1)CCC1C2CCC2(C)C(NCCCCCCN3C(=O)C=CC3=O)CCC12 (stereo not drawn) at 0.4 µM are A101D: 65.1; C32: 68.9; 501mel: 85.2; A2058: 68.2. With Cn1cc(/C=C2\C(=O)Nc3cccnc32)c2ccccc21 at 0.4 µM the screen read A101D: 91.5; C32: 98.2; 501mel: 79.0; A2058: 99.5. For CCN(CC)CCCCNc1ncc2cc(-c3cc(OC)cc(OC)c3)c(NC(=O)NC(C)(C)C)nc2n1 at 0.1 µM the values were A101D: 93.3; C32: 96.8; 501mel: 96.7; A2058: 92.3. O=C(Nc1ccccc1)c1cc([N+](=O)[O-])ccc1Cl at 2 µM gave A101D: 86.0; C32: 101; 501mel: 66.7; A2058: 93.3. COc1ccc(COc2ccc(Cc3cnc(N)nc3N)cc2OC)cc1 at 1 µM gave A101D: 90.1; C32: 93.7; 501mel: 84.9; A2058: 112.

For O=c1cc(-c2cccc3c2Sc2ccccc2S3)oc(N2CCOCC2)c1 at 1 µM the values were A101D: 111; C32: 92.9; 501mel: 93.2; A2058: 98.9. With CCCCCCCCCCCC1=C(O)C(=O)C=C(O)C1=O at 1.2 µM the screen read A101D: 90.7; C32: 99.2; 501mel: 96.2; A2058: 96.4.

For reference, 2 entries once more:

| Second drug | A101D | C32 | 501mel | A2058 |
|---|---|---|---|---|
| COc1ccc(COc2ccc(Cc3cnc(N)nc3N)cc2OC)cc1 at 1 µM | 90.1 | 93.7 | 84.9 | 112 |
| Cn1cc(/C=C2\C(=O)Nc3cccnc32)c2ccccc21 at 0.4 µM | 91.5 | 98.2 | 79.0 | 99.5 |